Assay results published in PubChem BioAssay AID2685 (National Center for Advancing Translational Sciences (NCATS), 2010).
The other results are listed elsewhere or left out. These are further read-outs of the screen, such as a control signal, another cell line or another target. No call is given for them. Most of these compounds were active or inconclusive in the main read-out, so they are no random draw. The note in brackets gives the kind of curve behind each potency; many fits are weak.

Assay: qHTS Assay for Lipid Storage Modulators in Drosophila S3 Cells;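 on cell number change: cells counted by Cell Tracker Red CMTPX staining in the red channel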
Conditions: BODIPY lipid droplet fluorescence, 18-24 h; for cell number change: measured here: cell count max response, cells fed with added oleic acid
Outline: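 Drosophila S3 cells got compounds at several concentrations plus oleic acid (400 uM solution). Laser-scanning cytometry with 488 nm excitation read lipid droplets at 500-530 nm and cells at 575-640 nm. Percent activity was relative to 20 uM Triacsin C.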

[1] = measured here: cell number channel AC50, cells fed with added oleic acid
[2] = measured here: lipid fluorescence (Fed channel) AC50, cells fed with added oleic acid

| SMILES | cell number change [%] | AC50 [1] | AC50 [2] |
| --- | --- | --- | --- |
| O=c1c2ccccc2nnn1Cc1ccc(F)cc1 | 56.5 | 10.3 µM [rising, partial curve, poor fit] |  |
| O=S(=O)(c1ccccc1)N1CCN(Cc2ccccc2)CC1 | 12.6 |  | 29.1 µM [rising, single point] |
| CCN(CC)CCCN1C(=O)c2oc3ccccc3c(=O)c2C1c1cccnc1 (stereo unspecified) | -0.847 |  | 0.651 µM [falling, single point] |
| Cc1cc(C(=O)N2CCCCCC2)cs1 | -35.6 | 25.9 µM [falling, single point] | 16.4 µM [falling, single point] |
| Cc1ccc(CN(C(=O)c2csnn2)C(C(=O)NC2CCCC2)c2ccccn2)cc1 (stereo unspecified) | 18.7 |  | 1.46 µM [falling, partial curve] |
| COc1ccc(OC)c(CN2CCN(C(=O)c3cccc4ccccc34)CC2)c1 | 13.8 |  | 0.13 µM [rising, full curve, poor fit] |
| COC(=O)c1nc(C(=O)OC)c(C(=O)OC)nc1C(=O)OC | -20.6 |  |  |
| Cc1ccc(OCc2nnc(NC(=O)OCC(C)C)s2)cc1 |  |  | 20.6 µM [falling, partial curve] |
| O=C1[C@@H]2C(c3ccccc3Cl)=NO[C@@H]2C(=O)N1Cc1ccccc1 | -67.5 | 20.6 µM [falling, single point] |  |
| O=C(NCC(c1ccco1)N1CCN(c2ccccc2)CC1)C(=O)NC1CCCCC1 (stereo unspecified) | 28.1 | 0.517 µM [rising, full curve, poor fit] | 0.517 µM [rising, full curve] |
| COC(=O)c1[nH]c2cc(OC)c(OC)cc2c1NC(=O)Oc1ccccc1 | -20.8 |  | 29.1 µM [falling, single point] |
| CN(C(=O)COC(=O)C1CCN(S(=O)(=O)c2cccs2)CC1)C1CCS(=O)(=O)C1 (stereo unspecified) | -76.3 | 32.6 µM [falling, partial curve, poor fit] |  |
| C/C=C(/C)C(=O)O[C@@H]1c2cc3c(c4c2[C@@]2(CO4)C(=O)C(OC)=C(OC)C=C2C[C@@H](C)[C@H]1C)OCO3 | -42.7 | 14.6 µM [falling, partial curve, poor fit] | 13 µM [falling, partial curve] |
| Cc1ccc(N=Cc2cc(Cl)cc(Cl)c2O)nc1 | -20.1 | 3.26 µM [falling, single point] |  |
| CC1CCCCC12NC(=O)N(CC(=O)N1CCc3ccccc31)C2=O (stereo unspecified) | 4.76 | 6.51 µM [falling, single point] | 6.51 µM [falling, single point] |
| Cc1c(O)ccc(-c2[nH]ncc2-c2nc3ccccc3s2)c1O | 14.1 | 0.92 µM [rising, partial curve] | 3.26 µM [rising, partial curve] |
| COc1cc(OC)cc(C(=O)N2CCC(C(=O)Nc3ccc4c(c3)OCCO4)CC2)c1 | 35.9 | 8.2 µM [rising, partial curve, poor fit] |  |
| Cn1c(-c2ccc(F)cc2)cnc1SCC(=O)N1CCCc2ccccc21 | 17.1 |  |  |
| Cc1c(CN2CCC(C)CC2)c(=O)n(-c2ccccc2)n1C | -17.5 |  | 0.517 µM [falling, full curve, poor fit] |
| Cc1ccccc1-c1nnc(SCC(=O)Nc2ccc3c(c2)OCCO3)n1N | -1.86 |  | 0.103 µM [falling, full curve, poor fit] |

| SMILES | cell number change [%] | AC50 [1] | AC50 [2] |
| --- | --- | --- | --- |
| Cc1ccc(-c2nnc3sc(-c4ccncc4)nn23)cc1 | -33 | 0.00517 µM [falling, full curve, poor fit] | 0.058 µM [rising, full curve, poor fit] |
| CC1CCN(S(=O)(=O)c2ccc(C(=O)OC(C)C(=O)N(C)C3CCCCC3)cc2)CC1 (stereo unspecified) | -21.7 |  | 23.1 µM [rising, single point] |
| Cc1ccc(C(=O)NCc2ccco2)o1 | -9.39 |  | 0.58 µM [falling, single point] |
| CCCOc1ccc(/C=C2/C(=O)ON=C2C)cc1OCC | -0.709 |  | 29.1 µM [rising, single point] |
| Cc1csc2c(N3CCC(C(=O)O)CC3)ncnc12 | 23.3 |  | 5.8 µM [rising, full curve, poor fit] |
| CCC(C)Sc1nc2c(c(=O)[nH]c(=O)n2C)n1CCc1ccccc1 (stereo unspecified) | -40.9 | 20.6 µM [falling, single point] | 20.6 µM [falling, single point] |
| Cc1cc(C)c(OCCN(C)C)c(Cl)c1 | -44.9 | 0.411 µM [falling, full curve] | 0.206 µM [falling, full curve] |
| COc1cccc(C2=NOC(C(=O)NCc3ccccc3)C2)c1 (stereo unspecified) | 44.4 | 9.2 µM [rising, partial curve, poor fit] | 4.61 µM [rising, full curve] |
| O=C(Nc1cccc(Cl)c1)Nc1cnccn1 | 23.4 |  | 3.55 µM [rising, full curve, poor fit] |
| COc1ccc(/C=C2\SC(=S)N(CCCC(=O)Nc3cc(C)on3)C2=O)cc1OC | 24.2 | 2.31 µM [rising, full curve, poor fit] |  |
| O=C(NCc1cccnc1)c1cccc(S(=O)(=O)N2CCCCC2)c1 | -4.89 |  |  |
| Cc1occc1-c1nnc(SCC(=O)NC(C)(C)C)n1C(C)c1ccccc1 (stereo unspecified) | 28.7 |  | 6.51 µM [rising, single point] |
| CC(=O)NCCc1ccc(C(=O)CSc2nnc(C3CC3)n2C2CC2)cc1 | 22.8 |  | 29.1 µM [rising, single point] |
| Cc1ccc(S(=O)(=O)N(C)c2ccc(OCC(=O)O)cc2)cc1 | -16.5 |  | 0.00461 µM [falling, full curve, poor fit] |
| COCCNC(=O)C1Cc2cc(S(=O)(=O)N3CCCC3)ccc2N1C(C)=O (stereo unspecified) | -12.2 |  | 29.1 µM [rising, single point] |
| CC(=O)Nc1cc(C(=O)NCc2ccco2)ccc1Sc1ccc(Cl)cc1 | 31.2 | 13 µM [rising, single point] |  |
| CC(C)[n+]1ccn(C2=C([O-])c3ccccc3C(=O)/C2=N\S(=O)(=O)c2ccccc2)c1 | -21.5 |  | 0.92 µM [falling, partial curve] |
| CN(Cc1ccccc1)C(=O)c1[nH]cnc1C(=O)Nc1nccs1 | 14.2 |  | 1.03 µM [falling, partial curve] |
| CCC(=O)Oc1ccc2c(C)cc(=O)oc2c1C |  |  | 1.64 µM [falling, partial curve, poor fit] |
| Cc1cccnc1NC1OC(=O)c2ccccc21 (stereo unspecified) | 8.76 |  | 1.46 µM [falling, full curve, poor fit] |

| SMILES | cell number change [%] | AC50 [1] | AC50 [2] |
| --- | --- | --- | --- |
| CC1CCCC(NC(=O)COC(=O)[C@@H](NC(=O)c2ccco2)C(C)C)C1C (stereo partly specified) | -22 |  | 0.00517 µM [falling, full curve, poor fit] |
| Cc1ccc(OCc2ccc(C(=O)Nc3ccc(S(N)(=O)=O)cc3)o2)cc1 | -11.7 | 0.651 µM [falling, single point] | 3.26 µM [falling, full curve, poor fit] |
| COc1ccc(NC(=O)/C=C/c2cccc(Br)c2)cn1 | -2.5 |  | 0.731 µM [rising, single point] |
| Cc1ccc(/C=N/N2CCN(Cc3ccc(C)cc3)CC2)cc1 | -21.8 |  | 29.1 µM [falling, single point] |
| COc1ccc(NC(=O)CN2CCCN(S(=O)(=O)c3ccc(F)cc3)CC2)cc1 | 18.9 |  | 6.51 µM [falling, single point] |
| CC(=O)c1ccc(N2CCN(C(=O)COc3ccc(F)cc3)CC2)c(F)c1 | -14 |  |  |
| O=C1CCCc2c1cc(C(=O)NC1CCSC1=O)c(=O)n2-c1ccccc1 (stereo unspecified) | -319 | 18.4 µM [falling, partial curve] |  |
| Cc1ccc(CC2SC(=Nc3ccccc3)N(c3ccccc3)C2=O)cc1 (stereo unspecified) | 36.3 | 13 µM [rising, partial curve] | 18.4 µM [rising, partial curve] |
| Cc1ccc(OCCC(=O)OCC(=O)C(C)(C)C)cc1 | 15.2 |  | 23.1 µM [rising, single point] |
| CC(C)(C)OC(=O)N1CCN(C(=O)c2[nH]cnc2C(=O)Nc2ccon2)CC1 | 20.2 |  | 29.1 µM [falling, single point] |
| COC(=O)c1ccc(-c2csc(NC(=O)c3ccc(S(=O)(=O)N4CCc5ccccc5C4)cc3)n2)cc1 | -0.497 |  |  |
| C=CCN1CCN(C(=O)c2c(-c3ccccc3)noc2C)CC1 | 0.276 |  | 18.4 µM [rising, single point] |
| C[C@@]12C(=O)N(CC3CCCO3)CC(=O)N1[C@H]1c3ccccc3OC[C@@H]1[C@@H]2c1ccccc1 (stereo partly specified) | -11.8 |  | 0.164 µM [rising, full curve, poor fit] |
| O=C(NCc1cccs1)c1nc2ncccn2n1 | 10.6 |  | 0.146 µM [falling, full curve, poor fit] |
| Cc1ccc(CNC(=O)c2ccccc2NS(C)(=O)=O)cc1 | 60.1 |  |  |
| COc1ccc(C2=NCCn3nc4cc([N+](=O)[O-])ccc4c32)cc1 | -29 | 0.461 µM [falling, full curve, poor fit] | 29.1 µM [falling, single point] |
| Cc1nn(CC(=O)Nc2ccccc2)c(=O)c2ccccc12 | -2.83 |  | 0.103 µM [rising, full curve, poor fit] |
| Oc1ccc(/C=N/Nc2nc(N3CCCCCC3)nc(N3CCCCCC3)n2)c(O)c1 | -60.2 | 29.1 µM [falling, single point] | 20.6 µM [falling, single point] |

Part of the list above in order of formula weight, descending:

| SMILES | cell number change [%] | AC50 [1] | AC50 [2] |
| --- | --- | --- | --- |
| COC(=O)c1ccc(-c2csc(NC(=O)c3ccc(S(=O)(=O)N4CCc5ccccc5C4)cc3)n2)cc1 | -0.497 |  |  |
| CC(=O)Nc1cc(C(=O)NCc2ccco2)ccc1Sc1ccc(Cl)cc1 | 31.2 | 13 µM [rising, single point] |  |
| Cc1nn(CC(=O)Nc2ccccc2)c(=O)c2ccccc12 | -2.83 |  | 0.103 µM [rising, full curve, poor fit] |
| Cc1ccc(N=Cc2cc(Cl)cc(Cl)c2O)nc1 | -20.1 | 3.26 µM [falling, single point] |  |
| O=c1c2ccccc2nnn1Cc1ccc(F)cc1 | 56.5 | 10.3 µM [rising, partial curve, poor fit] |  |
